Source: paper PMC12040169 (PLOS Biology, 2025)
The list shows a part of the results.

Tested on: T1, CTL2-GFP (C. trachomatis L2/434/Bu, GFP-expressing)
T1 construct: L2/434/Bu, GFP-expressing
Design: species or system HeLa; Intracellular C. trachomatis growth in HeLa cells, bulk GFP fluorescence relative to DMSO
Conditions: bulk GFP, single well; 28.5 h, 10 µM; inhibitor

| Structure (SMILES) | % of control remaining [%] |
| --- | --- |
| OCCCNc1cncc(-c2ccc(F)cc2F)n1 [CBK065851] | 182.96 |
| O=C(O)CCC(CCC(=O)O)C(=O)O [CBK260994] | 124.786 |
| O=C(Cc1ccc(Cl)cc1)Nc1cccc(C(=O)Nc2ccccc2C(=O)O)c1 [CBK264750] | 119.513 |
| Cc1nn(Cc2nnc(-c3cccs3)o2)c(C)c1Br [CBK010809] | 132.694 |
| O=C1N(C2CCCCC2)CC2C(c3ccccc3)ONC12O (stereo not drawn) [CBK021700] | 89.5654 |
| CN1CCN(C(=O)c2ccc(-c3cnc(OCC4CCN(C(=O)OC(C)(C)C)CC4)nc3)cn2)CC1 [CBK170021] | 97.8657 |
| Cc1ccc2c(c1)cc(C)c1nn(CC(=O)NC3CC3)c(=O)n12 [CBK283873] | 106.819 |
| CCc1nn(CC(=O)N(C)C)c(=O)c2cc3sccc3n12 [CBK284031] | 108.982 |
| S=C(Cc1csc2ccccc12)NC1CCCCC1 [CBK023515] | 124.547 |
| CCNc1nccnc1-c1cnc(OC)nc1OC [CBK088587] | 94.9347 |
| O=C(Cc1cccs1)N1CCC(c2nnc(-c3ccccc3)c(-c3ccccc3)n2)CC1 [CBK286283] | 100.028 |
| O=C(Oc1ccc2c(c1)OCO2)c1cc(S(=O)(=O)N2CCOCC2)c(Cl)cc1Cl [CBK269709] | 122.508 |
| Cc1c[nH]c(CN(C)c2cc([C@H]3C[C@@H](N)C3)nc(N3CCCC3)n2)n1 [CBK306798] | 118.293 |
| CN(C)c1ccc(NC(=O)CC2S/C(=N/c3ccccc3)N(c3ccccc3)C2=O)cc1 (stereo not drawn) [CBK265644] | 99.7787 |
| CCOC(=O)C1CCCN(C(=O)Nc2cc(C)on2)C1 (stereo not drawn) [CBK305661] | 122.811 |
| Cc1cccc(C)c1NC(=O)Cn1c(SCC(N)=O)nc2ccccc21 [CBK266684] | 121.239 |
| CCNc1nc(-c2ccc3c(c2)CCCN3S(C)(=O)=O)cs1 [CBK305861] | 100.123 |
| CCN(CC)CCn1c(=N)n(CC(=O)c2ccc(Cl)c(Cl)c2)c2ccccc21 [CBK263455B] | 100 |
| O=C(Cc1ccccc1)N/N=C/C1CC2CC1CC2C(F)(F)F (stereo not drawn) [CBK021488] | 105.684 |
| COc1ccc(Nc2ccc(-c3ccc(C(=O)O)cc3)cn2)cc1 [CBK037654] | 123.346 |
| CCOc1ccc(-c2cncc(NCCc3c[nH]c4ccccc34)n2)cc1 [CBK065876] | 190.771 |

| Structure (SMILES) | % of control remaining [%] |
| --- | --- |
| Fc1ccc2[nH]c3c(c2c1)CCOC31CCN(C/C=C\c2ccccc2)CC1 [CBK040141] | 41.3987 |
| CCC(Oc1ccccc1)C(=O)Nc1sc2c(c1C#N)CCCC2 (stereo not drawn) [CBK262091] | 88.002 |
| CCN1CC2(CCN(CCCn3c(=O)[nH]c4ccccc43)CC2)c2ccccc21 [CBK131483] | 126.595 |
| Cc1csc(Nc2cccc(C3CCCN3C(=O)CCOc3ccccc3C)n2)n1 (stereo not drawn) [CBK285977] | 102.862 |
| CCC(C)NC(=O)c1ccc2nccnc2c1 (stereo not drawn) [CBK268921] | 109.979 |
| Cn1nc(C(Cc2ccccc2)NC(=O)c2ccco2)c2cccnc21 (stereo not drawn) [CBK285223] | 153.305 |
| CCCNc1cncc(-c2ccc(OCC)cc2)n1 [CBK065845] | 77.9008 |
| COc1ccc(C)cc1S(=O)(=O)N(CC(=O)O)c1ccc(Cl)c(Cl)c1 [CBK269095] | 108.216 |
| COc1ccc(CCC(=O)Nc2cc(N3CCNCC3)ncn2)cc1 [CBK004231T] | 138.785 |
| Cc1cnc(CNC(=O)N2CCN(c3ccccc3)CC2)cn1 [CBK155174] | 96.4095 |
| CC(C)(C)OC(=O)N1CCCN(Cc2nnc(-c3ccco3)o2)CC1 [CBK305271] | 123.765 |
| COc1ccc(N2CCN(C(=O)CCC(F)(F)F)CC2)cc1 [CBK091419] | 102.315 |
| c1ccc2cc(-c3cc(Nc4ccc5[nH]ccc5c4)ncn3)ccc2c1 [CBK090853] | 160.166 |
| CN(C)C(C)(C)COc1ncccc1OCCO [CBK042184] | 112.978 |
| COCC(=O)N1CCC(Cc2ccc(-c3cccc(C)c3)cc2)(C(=O)NC(C)C)CC1 [CBK285759] | 134.694 |
| O=C1CCCCC1SCn1nnc2ccccc21 (stereo not drawn) [CBK011412] | 110.627 |
| C/C(=N\O)c1ccc(S(N)(=O)=O)cc1 [CBK007871] | 118.036 |
| Cc1ccc(N2C(=O)CSC23C(=O)Nc2ccc(Br)cc23)cc1 (stereo not drawn) [CBK093453] | 114.213 |
| COC(=O)c1cc(Cl)c(NC(=S)NC(=O)C(C)(C)C)cc1OC [CBK020937] | 118.014 |
| CC(C)(CN)CN(Cc1c[nH]c(-c2ccccc2)n1)C(=O)Nc1ccc(C(C)(C)C)cc1 [CBK002462C] | 35.016 |
| CCC(CC)c1cc([C@H]2CN3CC[C@H]2C[C@@H]3CO)nc(-c2ccncc2)n1 [CBK289118] | 145.683 |

| Structure (SMILES) | % of control remaining [%] |
| --- | --- |
| CC(C)NC(=O)Nc1ccccc1-c1ncn(C)n1 [CBK020922] | 110.928 |
| Cc1ccc(S(=O)(=O)N(CC(=O)Nc2cccnc2)c2cccc(Br)c2)cc1 [CBK264094] | 110.087 |
| C[C@H](Nc1nc(-c2cccc(C(N)=O)c2)cnc1N)c1ccccc1 [CBK063715] | 131.662 |
| COc1ccc2c3c([nH]c2c1)C(C)N(CCC(=O)NN)CC3 (stereo not drawn) [CBK261726] | 110.668 |
| CC(C)(C)OC(=O)N1CCN(CCCOC2(C)SC(NC3CC4CCC3C4)=NC2=O)CC1 (stereo not drawn) [CBK115612] | 98.1477 |
| CN1CCN(c2nc3c(N)ncn(CC(O)CO)c-3n2)CC1 (stereo not drawn) [CBK262571] | 104.242 |
| CN1CC(C(=O)N2C3CCC2CC(c2ccc(F)cc2)C3)CC1=O (stereo not drawn) [CBK283769] | 127.867 |
| Nc1ncc(-c2occc2C=O)nc1-c1ccc(F)c(Cl)c1 [CBK064005] | 119.627 |
| COc1ccc2c(c1Br)C=C(n1ccnc1)CC2 [CBK017808] | 82.9326 |
| COCC(=O)N1CCc2sccc2C1c1ccc(NCc2ccc(F)cc2)cc1 (stereo not drawn) [CBK286445] | 126.633 |
| CSc1ccc(CNCCc2c[nH]c3ccccc23)cc1 [CBK262126] | 100 |
| CCCNc1nccnc1-c1cccc(CO)c1 [CBK088897] | 153.039 |
| CN1CCCN(c2cnn(Cc3ccc(Cl)s3)c(=O)c2)CC1 [CBK307123] | 89.2983 |
| O=C(O)c1ccc(/C=N/Nc2cccc3cccnc23)cc1 [CBK262372] | 123.357 |
| Nc1ccc(CCNC(=O)c2cnc(-c3ccc(Cl)cc3)c(-c3ccco3)c2)cc1 [CBK036686] | 105.763 |
| OCCNc1nc(O)cc(C(F)(F)F)n1 [CBK001804] | 110.086 |
| Cc1ccc2c(c1)C(=O)NCC1(CCN(Cc3ccccc3)CC1)O2 [CBK285048] | 127.69 |
| Cc1ccc(CN(Cc2cncn2C)C2CC(C)(C)NC(C)(C)C2)o1 [CBK283192] | 118.945 |
| O=C(c1ccccn1)N1CCCC(c2cc3ccccc3cn2)C1 (stereo not drawn) [CBK282832] | 126.031 |
| Cc1nnnn1-c1cc(NC(=O)NCC2CCCO2)ccc1F (stereo not drawn) [CBK305528] | 149.315 |
| c1cnn(CCCNc2nc3nonc3nc2N2CCCCCC2)c1 [CBK307318] | 108.523 |

Quoted at random: 5 entries already listed

| Structure (SMILES) | % of control remaining [%] |
| --- | --- |
| CN1CCN(c2nc3c(N)ncn(CC(O)CO)c-3n2)CC1 (stereo not drawn) [CBK262571] | 104.242 |
| Cc1ccc(CN(Cc2cncn2C)C2CC(C)(C)NC(C)(C)C2)o1 [CBK283192] | 118.945 |
| CCNc1nccnc1-c1cnc(OC)nc1OC [CBK088587] | 94.9347 |
| CN1CCN(C(=O)c2ccc(-c3cnc(OCC4CCN(C(=O)OC(C)(C)C)CC4)nc3)cn2)CC1 [CBK170021] | 97.8657 |
| O=C(Cc1ccccc1)N/N=C/C1CC2CC1CC2C(F)(F)F (stereo not drawn) [CBK021488] | 105.684 |

(list continues)

| Structure (SMILES) | % of control remaining [%] |
| --- | --- |
| O=C1CCC(=O)N1CCOc1nccnc1OC1CCN(Cc2ccc(Cl)c(Cl)c2)CC1 [CBK084335] | 110.036 |
| CN1CCN(C(c2ccc(O)cc2)c2nnnn2Cc2ccccc2)CC1 (stereo not drawn) [CBK084719] | 115.064 |
| Clc1ccc(COc2nccnc2OCC2CCCO2)cc1Cl (stereo not drawn) [CBK161587] | 119.632 |
| CN(C)S(=O)(=O)c1ccc(Cl)c(C(=O)Nc2cccc(O)c2)c1 [CBK265723] | 84.284 |
| O=C(c1cncnc1)N1CCCc2ccccc21 [CBK200259] | 105.786 |
| CN(C)S(=O)(=O)N1CCC(C(=O)O)(c2ccccc2)CC1 [CBK286681] | 156.67 |
| O=C(Nc1nnc(-c2ccco2)o1)c1ccc2c(c1)CCCC2 [CBK287425] | 178.378 |
| Cc1ccc(-c2nnc(N3CCN(S(=O)(=O)c4ccc(Cl)cc4)CC3)c3ccccc23)cc1 [CBK266759] | 146.249 |
| CCOC(=O)C1(Cc2cc(-c3ccc(F)cc3)no2)CCCNC1 (stereo not drawn) [CBK284579] | 147.13 |
| CC(C)(c1ccccc1)c1ccc(OCc2ccc(S(=O)(=O)N3CCOCC3)cc2)cc1 [CBK267407] | 153.162 |
| Cc1ccc(N(CC(=O)Nc2cc(Cl)ccc2C)S(C)(=O)=O)cc1 [CBK264030] | 109.954 |
| CCN(CC)CCN1CCN(c2cc(-c3ccc(SC)cc3)ncn2)CC1 [CBK091203] | 196.802 |
| c1cc(-c2ccc(OC3CCNCC3)cc2)c2cccnc2c1 [CBK103528T] | 82.5661 |
| CC(C)(O)C#Cc1ccc(C(=O)NC(Cc2c[nH]c3ccccc23)C(=O)O)cc1 (stereo not drawn) [CBK267703] | 102.874 |
| O=C(c1ccccc1)c1cc(Cl)ccc1-n1ccnc1Br [CBK016011] | 91.1735 |
| O=C(O)CCN1C(=O)/C(=C/c2ccc(C(=O)O)cc2)SC1=S [CBK262785] | 136.648 |
| COCCN(CC1CC1)C(=O)c1cc(NC(C)=O)ccc1Cl [CBK304352] | 116.79 |
| CN1CCN(CC(=O)Nc2cc(C(F)(F)F)ccc2Cl)C(C)(C)C1 [CBK306363] | 133.863 |
